# Test results: the supplement of paper PMC8166895
# Structures can show the parent of a compound that is named as a salt. This is one part of the list. Most values lie at the level of the controls, where differences are scatter.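 A single-replicate pilot screen of approved drugs and clinical or known-target compounds measured melting temperature via differential scanning fluorimetry. Top stabilizing hits raised the melting point by 2 °C or more; negative shifts indicate destabilization.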
# Test system: SARS-CoV-2 main protease (Mpro, nsp5)
# Experiment: thermal shift ΔTm of Mpro relative to plate average Tm; higher = stronger thermal stabilization of Mpro (binding)
# Settings: 10 µM; protein concentration 1 µM
row,Structure (SMILES),thermal shift ΔTm of Mpro [°C]
1,OCc1ccccn1 [2-(Hydroxymethyl)pyridine],0.152
2,CN(C(=O)c1c(O)c2ccccc2n(C)c1=O)c1ccccc1 [Roquinimex],0.00769
3,CC(C)Cc1ccc(C(C)C(=O)O)cc1 (stereo unspecified) [Ibuprofen],0.00174
4,COc1ccc(CN2CCN(C(c3ccc(F)cc3)c3ccc(F)cc3)CC2)c(OC)c1OC [Lomerizine HCl],-0.264
5,O=C(c1cncc(Br)c1)N1CCC(N2CCCC2)CC1,-0.158
6,COc1ccc(C2=N[C@H](c3ccc(Cl)cc3)[C@H](c3ccc(Cl)cc3)N2C(=O)N2CCNC(=O)C2)c(OC(C)C)c1 [Nutlin-3b],-0.232
7,CN(C)CCCOc1ccc(-c2ccc3ncc4c(c3c2)n(C2CCOCC2)c(=O)n4C)cn1,-0.0739
8,Cc1cnc(C(=O)O)c[n+]1[O-] [Acipimox],0.0713
9,O=c1c(O)c(-c2ccc(O)c(O)c2)oc2cc(O)cc(O)c12 [Quercetin Dihydrate],-0.213
10,O=c1c(O)c(-c2ccc(O)c(O)c2)oc2cc(O)cc(O)c12 [Quercetin],-0.116
11,O=C(OCCOCCO)c1ccccc1Nc1cccc(C(F)(F)F)c1 [Etofenamate],-0.166
12,CC1CCCC(C)N1 (stereo unspecified) [Lupetidin],-0.154
13,O=C(O)c1cc(I)ccc1NC(=O)[C@H](Cc1ccccc1)NCc1ccccc1,0.272
14,NC(=O)[C@@H](N)CCCN=C(N)N [L-Argininamide dihydrochloride],-0.0939
15,NC(=O)[C@@H]1CC[C@H](c2ccc(OCc3ccccc3F)cc2)N1,0.0441
16,Nc1c(S(=O)(=O)O)cc(S(=O)(=O)O)c2cccc(O)c12 [CaMKP Inhibitor],0.132
17,C=C(c1ccc(C(=O)O)cc1)c1cc2c(cc1C)C(C)(C)CCC2(C)C [Bexarotene],0.0448
18,C[C@]12CCC(=O)C(O)=C1CC[C@@H]1[C@@H]2CC[C@]2(C)C(=O)CC[C@@H]12 [Formestane],-0.0669
19,CN(C)CCCCC(=O)Nc1ccc(NC(=S)NC(=O)c2ccc(C(C)(C)C)cc2)cc1 [Tenovin-6],-0.0514
20,CC(C)(C)NCC(O)c1cc(O)cc(O)c1 (stereo unspecified) [Terbutaline Sulfate],0.448
21,COc1cc2ncnc(Nc3ccccc3)c2cc1OC,0.0986

# Pulled one by one from the list above:
row,Structure (SMILES),thermal shift ΔTm of Mpro [°C]
2,CN(C(=O)c1c(O)c2ccccc2n(C)c1=O)c1ccccc1 [Roquinimex],0.00769
6,COc1ccc(C2=N[C@H](c3ccc(Cl)cc3)[C@H](c3ccc(Cl)cc3)N2C(=O)N2CCNC(=O)C2)c(OC(C)C)c1 [Nutlin-3b],-0.232

# Next part

row,Structure (SMILES),thermal shift ΔTm of Mpro [°C]
1,O=c1c2cc(O)c(O)cc2oc2c([C@@H]3O[C@H](CO)[C@@H](O)[C@H](O)[C@H]3O)c(O)cc(O)c12 [Isomangiferin],0.437
2,NNC(=O)c1nn(Cc2ccc(Cl)cc2Cl)c2ccccc12 [Adjudin],0.148
3,CC[N+](CC)(CC)CCOc1cccc(OCC[N+](CC)(CC)CC)c1OCC[N+](CC)(CC)CC [Gallamine Triethiodide],-0.0781
4,NCc1ccc(S(N)(=O)=O)cc1 [Mafenide hydrochloride],0.0535
5,CN[C@@H]1[C@H](O[C@H]2[C@H](O[C@H]3[C@H](O)[C@@H](O)[C@H](NC(=N)N)[C@@H](O)[C@@H]3NC(=N)N)O[C@@H](C)[C@]2(O)CO)O[C@@H](CO)[C@H](O)[C@H]1O [Dihydrostreptomycin sulfate],-0.195
6,Cc1c[nH]c(/C=C2\C(=O)Nc3ccccc32)c1CCC(=O)O,0.313
7,O=C(NCCCNC(=O)c1ccc[nH]c1=O)c1cc(-c2ccccc2)on1,-0.0597
8,Cc1ccccc1N=Nc1ccc(NC(=O)c2ccnn2C)c(C)c1,-0.214
9,Cn1cc(-c2ccc(S(=O)(=O)n3ccc(/C=C/C(=O)Nc4ccccc4N)c3)cc2)cn1 [4SC-202 tosylate],0.275
10,Cn1cc(-c2ccc(S(=O)(=O)n3ccc(/C=C/C(=O)Nc4ccccc4N)c3)cc2)cn1,1.14
11,CC/C(=C(\c1ccccc1)c1ccc(OCCN(C)C)cc1)c1ccccc1 [Tamoxifen Citrate],0.134
12,CCc1oc2ccccc2c1C(=O)c1cc(Br)c(O)c(Br)c1 [Benzbromarone],0.435
13,NC1=N[C@@](c2cccc(-c3cncnc3)c2)(c2ccnc(C(F)F)c2)c2cccc(F)c21,-0.451
14,COC(=O)[C@]12CCC(C)(C)C[C@H]1[C@H]1C(=O)C=C3[C@@]4(C)C=C(C#N)C(=O)C(C)(C)[C@@H]4CC[C@@]3(C)[C@]1(C)CC2 [Bardoxolone Methyl],-1.31
15,CCCCC[C@H](O)/C=C/[C@H]1[C@H](O)CC(=O)[C@@H]1CCCCCCC(=O)O [Alprostadil],0.545
16,CC(=O)Nc1ccc(C(=O)O)cc1 [Acedoben],0.0395
17,C(#Cc1nc2ncccc2nc1OCCN1CCCC1)c1ccccc1,-0.0265
18,O=C(O)c1ccccc1 [Benzoic Acid],-0.095
19,CC[C@@H]([C@H](C)O)n1ncn(-c2ccc(N3CCN(c4ccc(OC[C@@H]5CO[C@@](Cn6cncn6)(c6ccc(F)cc6F)C5)cc4)CC3)cc2)c1=O [Posaconazole],-0.13
20,CN1CCC[C@@H]1CCO[C@](C)(c1ccccc1)c1ccc(Cl)cc1 [Clemastine Fumarate],0.00565
